Reference: PubChem BioAssay AID651640 (Broad Institute, 2012)
Hit rate of the full screen: of about 350,000 compounds, about 6,000 (1.7%) were called active. Inconclusive means that the source gave no clear call. Such entries were picked first, then a sample of the others. No stated cut-off is given here; in the data, active means CPE inhibition above about 20% (passing the limit was not always enough); inconclusive means no clear call, values can overlap the other calls; tested in BHK-21 cells.

assay: protection of cells from dengue 2 killing – plate reader, single concentration, primary screen (AID 651640); conditions: DENV2-infected cells, cytopathic effect rescue, at 9.99 µM, hits give high values;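 further: 0% = median of neutral control wells and 100% = median of positive control wells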

Row | Structure (SMILES) | CPE inhibition
1 | Cc1ccc(S(=O)(=O)N(C)C[C@@H]2Oc3ccc(NC(=O)NC4CCCCC4)cc3C(=O)N([C@H](C)CO)C[C@@H]2C)cc1 | active: 28.5%
2 | Cc1cc(C)n(-c2ncc(C#N)cn2)n1 | inactive: 1.03%
3 | COC/C=C/C1=CC2=CC(=O)C(C)(OC(=O)c3cnc4ccccc4n3)C(=O)C2=CN1Cc1ccc(OC)cc1 (stereo unspecified) | inconclusive: 73.4%
4 | C[C@@H]1CN([C@@H](C)CO)C(=O)c2cccc(NS(=O)(=O)c3cn(C)cn3)c2O[C@H]1CN(C)S(=O)(=O)c1cn(C)cn1 | inactive: -7.99%
5 | O=C(C1CCC(=O)N(C2CC2)C1)N1CCC(Oc2ccccc2F)CC1 (stereo unspecified) | inconclusive: 48.6%
6 | CC1(Oc2cccnc2Cl)CCN(Cc2ccc(OC(F)(F)F)cc2)C1 (stereo unspecified) | inconclusive: 45.2%
7 | COc1cccc(CN2[C@@H](CO)[C@@H]3c4ccccc4N(C(=O)CC(F)(F)F)C[C@@H]32)c1 | inconclusive: 68.8%
8 | C[C@@H]1CN([C@H](C)CO)C(=O)c2cc(NC(=O)CCC(F)(F)F)ccc2O[C@@H](C)CCCCO[C@@H]1CN(C)Cc1ccc2c(c1)OCO2 | inconclusive: 34.7%
9 | Brc1ccc(CSc2nnc(-c3cccnc3)o2)cc1 | inconclusive: 25.7%
10 | CCCCNc1nc2sc3c(c2c(=O)n1-c1cccc(Cl)c1)CCN(C)C3 | inactive: -3.45%
11 | Cc1ccc(S(=O)(=O)NC(C)C(c2cccs2)N2CCOCC2)cc1 (stereo unspecified) | inconclusive: 29.6%
12 | COc1ccc(S(=O)(=O)N2CCC(C(=O)NCCC(=O)NCc3ccccn3)CC2)cc1 | active: 35.7%
13 | COCC#Cc1ccc2c(c1)O[C@@H](CN(C)Cc1ccccc1)[C@H](C)CN([C@H](C)CO)S2(=O)=O | active: 23.4%
14 | Cc1ccc(C)c(NC(=S)N2CCC(C(=O)c3ccc(F)cc3)CC2)c1 | active: 20.9%
15 | Cc1cc(NC(=O)COc2ccccc2)ccc1Cl | inconclusive: 24.6%
16 | COc1ccc(CC(=O)Nc2ccc(S(=O)(=O)Nc3cc(C)nc(C)n3)cc2)cc1OC | active: 29.6%
17 | CC(C)NC(=O)N(C)C[C@@H]1Oc2ccc(NC(=O)Cc3cn(C)c4ccccc34)cc2C(=O)N([C@@H](C)CO)C[C@H]1C | active: 79.8%
18 | C[C@H]1CN([C@@H](C)CO)C(=O)c2cc(-c3cccnc3)cnc2O[C@H]1CN(C)C | active: 73%
19 | C[C@@H](C(=O)NC1CCN(Cc2ccccc2)CC1)N1C(=O)N2CCc3c([nH]c4ccccc34)[C@@]2(C)C1=O | inconclusive: 65.2%
20 | CN(C)CCCNC(CC(=O)Nc1cccc([N+](=O)[O-])c1)C(=O)O (stereo unspecified) | active: 48.1%
21 | Cc1cccc(-c2ccc([C@H]3[C@H](CO)N4CCCCN(C(=O)NC(C)C)C[C@@H]34)cc2)c1 | inconclusive: 20.5%
22 | CCN=C1NC(c2ccccc2C(F)(F)F)C(C(=O)OC)=C(C)N1C (stereo unspecified) | active: 20.9%
23 | CCC(=O)Nc1ccc2c(c1)C(=O)N(C)[C@@H]1CC[C@H](CC(=O)NC3CCCC3)O[C@H]1CO2 | active: 43.5%

Row | Structure (SMILES) | CPE inhibition
24 | CO[C@H]1CN(C)C(=O)c2cc(NC(=O)Nc3cccc(F)c3)ccc2OC[C@H](C)N(C)C[C@H]1C | active: 29%
25 | COc1ccc(CCNC(=O)c2cc3cccc(OC)c3oc2=O)cc1OC | inactive: 4.36%
26 | CO[C@H]1CN(C)C(=O)c2cc(NS(=O)(=O)Cc3ccccc3)ccc2OC[C@H](C)NC[C@H]1C | inconclusive: 20%
27 | C[C@H]1CCCCO[C@H](CN(C)C(=O)Nc2ccc3c(c2)OCO3)[C@@H](C)CN([C@@H](C)CO)C(=O)c2cc(NS(=O)(=O)c3ccccc3)ccc2O1 | inconclusive: 25.7%
28 | CN(C(=O)c1ccc2c(c1)OCO2)C1CCS(=O)(=O)C1 (stereo unspecified) | inconclusive: 47.2%
29 | C[C@H]1CN([C@@H](C)CO)C(=O)c2cc(NS(C)(=O)=O)ccc2O[C@@H]1CN(C)CC1CC1 | inconclusive: 20.3%
30 | Cc1nn(Cc2ccc(Cl)cc2)c(C)c1NC(=O)c1ccc([N+](=O)[O-])cc1 | active: 33.5%
31 | CN(C)CCCNc1cc(O)c2ncccc2c1 | active: 56.8%
32 | CSC1=NCCN1C(=O)c1ccc(S(=O)(=O)N2CCCC2)cc1 | inconclusive: 36.9%
33 | CCCCNC(=O)CNC(=O)c1nn(-c2ccc(OC)c(OC)c2)c(=O)c2ccccc12 | inconclusive: 51.6%
34 | Cn1cnc(S(=O)(=O)N2CC[C@@H]3[C@@H](CO)Nc4ccc(C#Cc5ccc(F)cc5)cc4[C@@H]32)c1 | inactive: 0.615%
35 | CC(=O)N(C)C[C@@H]1Oc2ncc(C#CC3(O)CCCC3)cc2C(=O)N([C@H](C)CO)C[C@@H]1C | active: 31.5%
36 | C[C@@H]1CN([C@@H](C)CO)C(=O)c2cc(NC(=O)c3ccccc3)ccc2O[C@@H](C)CCCCO[C@@H]1CN(C)S(=O)(=O)c1cccs1 | active: 45.2%
37 | COc1ccc(S(=O)(=O)N(C)C[C@H]2OCCCC[C@H](C)Oc3ccc(NS(=O)(=O)c4ccc(Cl)cc4)cc3C(=O)N([C@H](C)CO)C[C@H]2C)cc1 | active: 20.9%
38 | CCOC(=O)c1sc(NC(=O)CC)c(C#N)c1C | inconclusive: 20.8%
39 | COC(=O)[C@@H]1C[C@@]2(O)[C@@H](O)[C@@H](O)[C@@H](O)C[C@H]2N1C/C=C/c1ccccc1 | inconclusive: 23.4%
40 | CCCNC(=O)Nc1ccc2c(c1)C(=O)N(C)C[C@H](OC)[C@H](C)CN(C)[C@H](C)CO2 | active: 38.3%
41 | Nc1nc(Sc2ccc([N+](=O)[O-])c3nonc23)c2[nH]cnc2n1 | inconclusive: 28.4%
42 | COc1ccc(-c2nc(NCCCN(C)C)c3ccccc3n2)cc1 | active: 30.1%
43 | NCCNC[C@@H]1COC2(CCCCCCCCCCC2)O1 | inconclusive: 27.2%
44 | C[C@H](CO)N1C[C@H](C)[C@@H](CN(C)C(=O)Nc2ccc(F)cc2)Oc2ncc(C#C[C@@H](C)O)cc2C1=O | inactive: 2.75%
45 | Cc1cc(C)c2nc(N3C(=O)C(O)=C(C(=O)c4ccco4)C3c3cccc(O)c3)sc2c1 (stereo unspecified) | inactive: 1.99%
46 | COc1ccc(OC)c(NC(=O)c2cc3c(cc2Cl)N2CCCCCC2=NS3(=O)=O)c1 | inconclusive: 23.4%

Single entries from the entries so far.
CPE inhibition, `C[C@H]1CCCCO[C@H](CN(C)C(=O)Nc2ccc3c(c2)OCO3)[C@@H](C)CN([C@@H](C)CO)C(=O)c2cc(NS(=O)(=O)c3ccccc3)ccc2O1` is entered as inconclusive: 25.7%
CPE inhibition, `Nc1nc(Sc2ccc([N+](=O)[O-])c3nonc23)c2[nH]cnc2n1` is entered as inconclusive: 28.4%
CPE inhibition, `Cn1cnc(S(=O)(=O)N2CC[C@@H]3[C@@H](CO)Nc4ccc(C#Cc5ccc(F)cc5)cc4[C@@H]32)c1` is entered as inactive: 0.615%
